# Where a name gives a salt, the structure may show the parent alone. Screen size: about 5,300 compounds; about 130 (2.5%) showed an effect of 50% or more. The list shows a part of the results.
# Test system: M. mycetomatis strain mm55
# Conditions: primary screen, metabolic activity vs growth control; 96 h, 2 µM; inhibitor
row,SMILES,% viability [%]
1,"CCOC(=O)n1ccn(C)c1=S [ONC0003973, carbimazole]",65.07
2,"Cc1oc2ccccc2c1CNC(=O)NCc1cccs1 [ONC0002994, s07662]",96.39
3,"COc1ccc(/C=C\c2cc(OC)c(OC)c(OC)c2)cc1O [ONC0002857, combretastatina4]",100.8
4,"CC(=O)NC(Cc1ccc(O)cc1)C(=O)O (stereo not shown) [ONC0003721, nacetyltyrosine]",120.2
5,"N=C(N)NC(=O)c1cnccn1 [ONC0003566, pyrazinoylguanidine]",115.5
6,"COc1cc(C(C)=O)ccc1OCCCN1CCC(c2noc3cc(F)ccc23)CC1 [ONC0004763, iloperidone fanapt]",108.7
7,"CNC(=O)[C@@H](c1ccccc1)N1CCc2cc(OC)c(OC)cc2[C@@H]1CCc1ccc(C(F)(F)F)cc1 [ONC0002030, almorexant hydrochloride]",100.2
8,"CCCC1O[C@@H]2C[C@H]3[C@@H]4CCC5=CC(=O)C=C[C@]5(C)[C@H]4[C@@H](O)C[C@]3(C)[C@]2(C(=O)CO)O1 (stereo partly shown) [ONC0005559, budesonide]",51.58
9,"CCOc1ccc(Cc2cc([C@]34OC[C@](CO)(O3)[C@@H](O)[C@H](O)[C@H]4O)ccc2Cl)cc1 [ONC0000955, ertugliflozin]",63.05
10,"CC(C)n1nnc2cc(C(=O)O)ccc21 [ONC0001316, ibc293]",69.16
11,"COC(=O)c1c(C)[nH]c(C)c1C(=O)c1ccccc1Cc1ccccc1 [ONC0001817, fpl64176]",119.1
12,"CC(C)CN(C[C@@H](O)[C@H](Cc1ccccc1)NC(=O)[C@@H](NC(=O)CNCc1cccc(F)c1)C(C)(C)C)S(=O)(=O)c1cccc(N)c1 [ONC0001912, dpc681]",78.72
13,"c1cc(-c2cnn3cc(-c4ccc(N5CCNCC5)cc4)cnc23)c2cccnc2c1 [ONC0005141, ldn212854]",77.57
14,"COc1cccc(-c2ccc([C@@H](Oc3cc(-c4ccc(C[C@H](N)C(=O)O)cc4)nc(N)n3)C(F)(F)F)cc2)c1 [ONC0002287, lx1031]",73.48
15,"CN1c2c(oc(=O)n(-c3ccccn3)c2=O)-c2ccccc2S1(=O)=O [ONC0005427, droxicam]",134.7
16,"Cc1cccn2c(=O)c(/C=C(\C#N)c3nc4ccccc4s3)c(Oc3ccc(F)cc3)nc12 [ONC0003502, ccg63808]",42.44
17,"CCOC(=O)c1ncn2c1[C@@H]1CCCN1C(=O)c1cc(OC)ccc1-2 [ONC0001700, l655708]",79.81
18,"COc1ccc(-c2sc(NC(=O)C(C)(C)C)nc2C)cc1S(=O)(=O)Nc1ccc(O)cc1 [ONC0002488, pi4kiiibetain10]",64.73
19,"CC(C)C[C@@H](C(=O)N[C@@H](Cc1ccc(OCc2ccccc2)cc1)C(=O)NC(C)(C)C)N(C)Cc1ccc(C(C)(C)C)cc1 [ONC0001572, pd173212]",122.5
20,"CCCCN(Cc1ccc(C(=O)NO)cc1)C(=O)Nc1ccccc1 [ONC0005155, nexturastat a]",112.5

row,SMILES,% viability [%]
1,"Nc1nc(N)c2nc(CNc3ccc(C(=O)N[C@@H](CCC(=O)O)C(=O)O)cc3)cnc2n1 [ONC0005531, aminopterin]",95.62
2,"N[C@@H](CSCC(=O)O)C(=O)O [ONC0003352, carbocysteine]",72.13
3,"CCCCCCCCCCCC(=O)OCC(O)CO (stereo not shown) [ONC0005598, glycerolmonolaurate]",53.08
5,"OCCc1ccc(OCCn2ccnc2)cc1 [ONC0002571, mr948]",60.25
6,"O=C(O)Cc1ccc(OCCNC[C@H](O)c2ccccc2)cc1 [ONC0001068, zd2079]",36.58
7,"O=C(c1ccc(Cl)o1)N1CC2CNCC2C1 (stereo not shown) [ONC0001914, azd1446]",76.82
8,"CC(C)(C)c1ccc(-c2nc3c(N4CCN(Cc5ccc6nccnc6c5)CC4)cccc3[nH]2)cc1 [ONC0001828, way207024]",97.56
9,"O=C(Nc1ccncc1)C(=O)c1cn(Cc2ccc(Cl)cc2)c2ccccc12 [ONC0003365, indibulin]",53.12
10,"CC(CNS(=O)(=O)C(C)C)c1ccc(-c2ccc(C#N)cc2)cc1 (stereo not shown) [ONC0003605, ly404187]",108.4
11,"C=CC[C@]1(O)CC[C@H]2[C@@H]3CCC4=CCCC[C@@H]4[C@H]3CC[C@@]21C [ONC0002177, allylestrenol]",92.16
12,"O=C(COc1ccc(Cl)cc1)N[C@H]1CC[C@H](NC(=O)COc2ccc(Cl)cc2)CC1 [ONC0001166, isrib transisomer]",90.8
13,"C[C@@]1(O)[C@H](O)[C@@H](CO)O[C@H]1n1cnc2c(=O)[nH]c(N)nc21 [ONC0005603, 2cmethylguanosine]",96.86
14,"Cn1c(C#N)ccc1-c1ccc2c(c1)C(C)(C)OC(=S)N2 [ONC0000956, tanaproget]",70.6
15,"Cc1cc(C)c2c(c1)[C@@H](N(Cc1cc(C(F)(F)F)cc(C(F)(F)F)c1)c1nnn(C)n1)CCCN2C[C@H]1CC[C@H](C(=O)O)CC1 [ONC0004372, evacetrapib ly2484595]",132.8
16,"CN1[C@@H]2CC[C@@H]1CC(OC(c1ccccc1)c1ccccc1)C2 (stereo partly shown) [ONC0005113, benztropine mesylate]",76.96
17,"CC[C@H](NC(=O)c1c(C)c(-c2ccccc2)nc2ccccc12)c1ccccc1 [ONC0003001, sb222200]",60.49
18,"NCC(O)(CS(=O)(=O)O)c1ccc(Cl)cc1 (stereo not shown) [ONC0000147, 2hydroxysaclofen]",104.7
19,"COc1cc(/C=C/c2ccc(O)cc2)cc(OC)c1 [ONC0005458, pterostilbene]",95.29
20,"CCOC(=O)c1ncn2c1CN(C)C(=O)c1cc(F)ccc1-2 [ONC0004084, flumazenil]",104.1

# Looked up above:
# Under % viability [%], `O=C(O)Cc1ccc(OCCNC[C@H](O)c2ccccc2)cc1` [ONC0001068, zd2079] shows 36.58
# Under % viability [%], `CC[C@H](NC(=O)c1c(C)c(-c2ccccc2)nc2ccccc12)c1ccccc1` [ONC0003001, sb222200] shows 60.49
# Under % viability [%], `Nc1nc(N)c2nc(CNc3ccc(C(=O)N[C@@H](CCC(=O)O)C(=O)O)cc3)cnc2n1` [ONC0005531, aminopterin] shows 95.62

# Reference: article PMC12670160, “A drug-repurposing screen of FDA- and EMA-approved drugs identifies two NF-κB inhibitors active against eumycetoma” (Journal of Antimicrobial Chemotherapy, 2025)
